Some of the results follow.

Amino acid sequences for entries named in this document (tags omitted). A change or cut given only in a name is not applied to a line headed by its entry.
UniProt Q674X7: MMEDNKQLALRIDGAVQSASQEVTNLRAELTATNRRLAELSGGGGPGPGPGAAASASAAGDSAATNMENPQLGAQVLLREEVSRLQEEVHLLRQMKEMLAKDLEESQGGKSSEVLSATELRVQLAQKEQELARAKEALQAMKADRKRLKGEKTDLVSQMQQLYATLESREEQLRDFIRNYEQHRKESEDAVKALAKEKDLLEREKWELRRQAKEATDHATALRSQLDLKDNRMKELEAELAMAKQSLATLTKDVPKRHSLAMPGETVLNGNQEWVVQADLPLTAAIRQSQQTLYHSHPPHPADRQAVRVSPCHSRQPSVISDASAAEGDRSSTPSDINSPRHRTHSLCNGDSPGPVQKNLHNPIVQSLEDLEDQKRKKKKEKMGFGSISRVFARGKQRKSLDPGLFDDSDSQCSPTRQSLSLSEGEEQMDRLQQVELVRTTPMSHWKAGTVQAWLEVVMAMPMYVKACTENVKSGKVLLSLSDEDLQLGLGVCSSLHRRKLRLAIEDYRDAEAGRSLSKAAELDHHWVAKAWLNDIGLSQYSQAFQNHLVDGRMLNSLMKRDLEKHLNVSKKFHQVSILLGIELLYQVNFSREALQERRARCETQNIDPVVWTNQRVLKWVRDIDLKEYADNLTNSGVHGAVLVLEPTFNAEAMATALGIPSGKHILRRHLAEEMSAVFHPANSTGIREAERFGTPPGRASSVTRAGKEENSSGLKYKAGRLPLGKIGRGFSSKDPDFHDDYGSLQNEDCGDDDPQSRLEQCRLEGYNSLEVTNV
UniProt Q9H910: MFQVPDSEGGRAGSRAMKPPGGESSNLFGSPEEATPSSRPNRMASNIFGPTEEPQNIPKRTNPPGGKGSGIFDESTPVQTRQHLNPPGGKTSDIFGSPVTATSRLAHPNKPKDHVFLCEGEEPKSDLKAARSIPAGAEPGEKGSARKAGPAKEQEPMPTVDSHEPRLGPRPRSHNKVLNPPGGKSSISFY
UniProt Q96AZ6: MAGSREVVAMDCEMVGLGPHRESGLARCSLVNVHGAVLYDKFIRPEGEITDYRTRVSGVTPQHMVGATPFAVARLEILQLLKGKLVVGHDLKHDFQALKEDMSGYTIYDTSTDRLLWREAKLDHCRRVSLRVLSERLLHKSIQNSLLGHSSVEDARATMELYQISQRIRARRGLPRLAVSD
UniProt Q9Y4H2: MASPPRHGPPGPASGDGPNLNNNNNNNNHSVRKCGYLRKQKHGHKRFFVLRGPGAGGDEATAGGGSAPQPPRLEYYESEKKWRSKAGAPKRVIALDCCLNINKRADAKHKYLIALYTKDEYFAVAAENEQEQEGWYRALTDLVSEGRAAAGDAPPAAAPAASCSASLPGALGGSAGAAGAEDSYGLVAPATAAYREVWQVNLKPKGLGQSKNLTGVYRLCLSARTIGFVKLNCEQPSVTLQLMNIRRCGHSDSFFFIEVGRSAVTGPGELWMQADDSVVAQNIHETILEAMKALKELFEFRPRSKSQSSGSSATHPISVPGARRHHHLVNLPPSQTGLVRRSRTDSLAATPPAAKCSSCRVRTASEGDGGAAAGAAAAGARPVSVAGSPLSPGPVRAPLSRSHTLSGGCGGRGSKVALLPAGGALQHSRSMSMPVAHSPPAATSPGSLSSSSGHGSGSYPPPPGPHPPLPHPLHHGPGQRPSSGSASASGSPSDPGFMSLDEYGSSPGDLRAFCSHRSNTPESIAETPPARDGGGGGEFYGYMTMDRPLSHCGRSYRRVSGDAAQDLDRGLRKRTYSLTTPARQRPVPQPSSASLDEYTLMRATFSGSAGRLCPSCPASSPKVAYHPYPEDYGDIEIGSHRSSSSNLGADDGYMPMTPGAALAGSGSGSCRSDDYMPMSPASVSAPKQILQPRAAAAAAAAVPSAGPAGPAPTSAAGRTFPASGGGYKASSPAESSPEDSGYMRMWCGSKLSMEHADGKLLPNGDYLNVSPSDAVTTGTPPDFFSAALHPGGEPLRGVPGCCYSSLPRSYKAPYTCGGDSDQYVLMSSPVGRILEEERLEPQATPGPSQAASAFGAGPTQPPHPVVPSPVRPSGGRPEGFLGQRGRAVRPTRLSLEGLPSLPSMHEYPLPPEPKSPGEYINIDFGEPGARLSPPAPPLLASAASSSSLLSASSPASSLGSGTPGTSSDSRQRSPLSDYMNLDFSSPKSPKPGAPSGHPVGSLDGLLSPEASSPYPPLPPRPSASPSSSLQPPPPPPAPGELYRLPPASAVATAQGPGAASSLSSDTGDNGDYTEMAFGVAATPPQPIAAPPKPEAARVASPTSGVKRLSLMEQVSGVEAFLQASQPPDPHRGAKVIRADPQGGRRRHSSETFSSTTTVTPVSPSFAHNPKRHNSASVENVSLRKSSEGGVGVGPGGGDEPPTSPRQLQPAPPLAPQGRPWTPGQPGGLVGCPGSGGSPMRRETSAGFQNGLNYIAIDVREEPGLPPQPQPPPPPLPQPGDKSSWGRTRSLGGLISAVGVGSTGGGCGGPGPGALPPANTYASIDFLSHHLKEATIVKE
UniProt Q8WZ19: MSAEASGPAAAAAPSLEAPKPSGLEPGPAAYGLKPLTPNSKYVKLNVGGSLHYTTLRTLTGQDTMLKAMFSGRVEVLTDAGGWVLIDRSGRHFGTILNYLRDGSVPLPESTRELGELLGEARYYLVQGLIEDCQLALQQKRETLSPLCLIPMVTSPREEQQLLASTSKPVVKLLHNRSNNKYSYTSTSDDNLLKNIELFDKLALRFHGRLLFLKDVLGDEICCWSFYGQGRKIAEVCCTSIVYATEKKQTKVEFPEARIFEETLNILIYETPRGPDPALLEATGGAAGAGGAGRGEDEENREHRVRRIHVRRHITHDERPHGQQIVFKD
UniProt Q8N9B5, whole entry, looked up: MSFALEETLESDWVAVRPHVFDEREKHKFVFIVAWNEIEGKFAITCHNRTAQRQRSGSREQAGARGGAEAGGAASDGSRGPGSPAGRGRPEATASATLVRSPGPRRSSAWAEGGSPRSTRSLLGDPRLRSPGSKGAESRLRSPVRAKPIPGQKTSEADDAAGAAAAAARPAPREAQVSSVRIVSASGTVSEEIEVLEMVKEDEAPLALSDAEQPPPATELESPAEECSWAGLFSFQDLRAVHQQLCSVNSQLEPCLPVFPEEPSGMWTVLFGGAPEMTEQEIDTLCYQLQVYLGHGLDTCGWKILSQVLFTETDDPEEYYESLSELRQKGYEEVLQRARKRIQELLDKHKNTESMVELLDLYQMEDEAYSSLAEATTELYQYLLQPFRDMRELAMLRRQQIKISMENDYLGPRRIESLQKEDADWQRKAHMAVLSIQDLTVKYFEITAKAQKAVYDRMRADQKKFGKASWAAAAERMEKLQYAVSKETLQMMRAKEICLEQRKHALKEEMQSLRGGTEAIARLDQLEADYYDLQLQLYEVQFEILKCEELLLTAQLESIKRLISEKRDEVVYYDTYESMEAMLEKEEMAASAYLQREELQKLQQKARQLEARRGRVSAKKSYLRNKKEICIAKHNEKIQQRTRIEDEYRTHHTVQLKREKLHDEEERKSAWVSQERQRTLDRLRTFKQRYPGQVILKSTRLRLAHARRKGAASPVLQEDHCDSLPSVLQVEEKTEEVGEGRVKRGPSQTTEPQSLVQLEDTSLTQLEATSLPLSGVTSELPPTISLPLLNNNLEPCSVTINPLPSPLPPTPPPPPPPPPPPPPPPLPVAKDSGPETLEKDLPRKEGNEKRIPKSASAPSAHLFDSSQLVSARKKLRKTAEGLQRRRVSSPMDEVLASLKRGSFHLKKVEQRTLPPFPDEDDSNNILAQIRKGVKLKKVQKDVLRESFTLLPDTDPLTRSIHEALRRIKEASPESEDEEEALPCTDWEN
UniProt Q9UKP3: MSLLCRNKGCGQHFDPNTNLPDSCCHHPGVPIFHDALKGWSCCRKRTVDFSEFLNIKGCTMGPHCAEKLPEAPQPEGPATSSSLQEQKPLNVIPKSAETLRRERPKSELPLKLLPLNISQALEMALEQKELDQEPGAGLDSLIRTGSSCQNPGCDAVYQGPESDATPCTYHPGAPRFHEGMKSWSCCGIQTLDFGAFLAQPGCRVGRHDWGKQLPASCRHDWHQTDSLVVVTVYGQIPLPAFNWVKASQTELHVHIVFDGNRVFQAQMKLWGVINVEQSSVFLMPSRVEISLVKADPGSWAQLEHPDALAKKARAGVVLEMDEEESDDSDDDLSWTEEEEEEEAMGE
UniProt O43731: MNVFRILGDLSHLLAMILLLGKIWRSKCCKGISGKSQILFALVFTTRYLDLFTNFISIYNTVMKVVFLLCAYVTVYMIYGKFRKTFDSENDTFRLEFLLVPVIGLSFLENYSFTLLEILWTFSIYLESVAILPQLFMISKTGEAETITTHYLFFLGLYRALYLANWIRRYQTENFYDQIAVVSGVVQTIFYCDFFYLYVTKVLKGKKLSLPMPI
UniProt O60674: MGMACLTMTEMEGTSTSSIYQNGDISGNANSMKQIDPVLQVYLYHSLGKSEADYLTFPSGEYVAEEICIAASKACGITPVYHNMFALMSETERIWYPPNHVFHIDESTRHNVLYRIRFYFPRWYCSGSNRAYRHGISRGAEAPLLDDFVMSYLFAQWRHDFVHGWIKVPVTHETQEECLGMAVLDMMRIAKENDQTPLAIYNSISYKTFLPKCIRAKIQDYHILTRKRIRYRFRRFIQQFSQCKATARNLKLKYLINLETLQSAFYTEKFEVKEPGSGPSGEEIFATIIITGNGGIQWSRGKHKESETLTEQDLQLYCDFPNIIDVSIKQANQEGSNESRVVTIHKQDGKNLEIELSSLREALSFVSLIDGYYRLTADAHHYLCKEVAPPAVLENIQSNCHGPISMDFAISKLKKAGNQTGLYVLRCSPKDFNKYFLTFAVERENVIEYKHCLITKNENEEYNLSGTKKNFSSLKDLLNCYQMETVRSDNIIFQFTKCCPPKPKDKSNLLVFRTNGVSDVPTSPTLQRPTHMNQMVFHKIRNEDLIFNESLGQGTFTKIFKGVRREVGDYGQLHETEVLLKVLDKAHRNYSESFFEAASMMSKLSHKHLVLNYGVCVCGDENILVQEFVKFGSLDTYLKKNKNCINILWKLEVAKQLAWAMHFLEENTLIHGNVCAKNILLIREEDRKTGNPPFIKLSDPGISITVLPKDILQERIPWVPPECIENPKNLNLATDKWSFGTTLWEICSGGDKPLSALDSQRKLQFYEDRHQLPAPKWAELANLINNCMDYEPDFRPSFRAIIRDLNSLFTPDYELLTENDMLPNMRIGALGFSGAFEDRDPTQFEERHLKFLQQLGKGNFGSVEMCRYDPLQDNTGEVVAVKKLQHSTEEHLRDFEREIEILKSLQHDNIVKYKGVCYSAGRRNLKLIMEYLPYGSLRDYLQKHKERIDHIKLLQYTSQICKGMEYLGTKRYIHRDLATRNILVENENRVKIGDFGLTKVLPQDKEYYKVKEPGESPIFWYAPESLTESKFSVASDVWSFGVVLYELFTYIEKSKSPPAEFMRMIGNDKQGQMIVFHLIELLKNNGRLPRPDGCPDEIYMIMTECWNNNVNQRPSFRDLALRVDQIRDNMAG
UniProt Q9H079: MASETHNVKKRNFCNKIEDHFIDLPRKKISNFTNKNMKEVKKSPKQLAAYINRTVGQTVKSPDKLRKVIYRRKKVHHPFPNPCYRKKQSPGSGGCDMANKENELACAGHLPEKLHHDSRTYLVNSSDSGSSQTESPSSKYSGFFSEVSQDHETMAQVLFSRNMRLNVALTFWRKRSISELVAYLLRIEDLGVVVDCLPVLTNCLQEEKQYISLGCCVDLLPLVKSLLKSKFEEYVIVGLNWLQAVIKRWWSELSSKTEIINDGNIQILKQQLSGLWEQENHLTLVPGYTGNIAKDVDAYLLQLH
UniProt Q9Y573: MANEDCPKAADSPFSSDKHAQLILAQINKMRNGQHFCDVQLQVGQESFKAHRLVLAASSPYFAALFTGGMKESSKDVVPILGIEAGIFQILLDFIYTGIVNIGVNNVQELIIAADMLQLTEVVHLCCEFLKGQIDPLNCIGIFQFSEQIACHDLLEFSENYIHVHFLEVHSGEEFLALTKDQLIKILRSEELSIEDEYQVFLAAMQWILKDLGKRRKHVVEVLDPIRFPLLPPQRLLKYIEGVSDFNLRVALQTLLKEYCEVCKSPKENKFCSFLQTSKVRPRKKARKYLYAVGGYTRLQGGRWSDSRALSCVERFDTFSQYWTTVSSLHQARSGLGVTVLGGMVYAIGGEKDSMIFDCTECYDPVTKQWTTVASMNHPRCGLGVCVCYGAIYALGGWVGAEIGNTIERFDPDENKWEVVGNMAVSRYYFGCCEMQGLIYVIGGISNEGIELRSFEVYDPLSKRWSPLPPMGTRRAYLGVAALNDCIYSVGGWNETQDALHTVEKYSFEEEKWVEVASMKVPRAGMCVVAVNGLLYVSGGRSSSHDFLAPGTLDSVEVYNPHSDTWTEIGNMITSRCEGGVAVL
UniProt Q13352: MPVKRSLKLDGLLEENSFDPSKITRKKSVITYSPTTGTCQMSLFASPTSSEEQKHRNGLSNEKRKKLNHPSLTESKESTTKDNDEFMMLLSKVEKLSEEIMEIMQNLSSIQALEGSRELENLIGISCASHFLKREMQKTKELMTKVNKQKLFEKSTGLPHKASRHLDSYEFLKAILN

Compound in the first experiment: C1=CC=C(C=C1)[C@H](COC2=CC3=C(C=C2)NC(=O)N3)NC(=O)C4=CC=CN(C4=O)CC5=CC(=C(C=C5)F)F
In words: log2 fold change, soluble protein after heating vs DMSO (PISA); higher = thermal stabilisation; K562 lysate, 10 uM; active = over 0.2 and 3.5 SD of the protein, either way, in both replicates (recomputed). In a few lines:
(§1)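 Dounce homogenisation of K562 pellets in PBS pH 7.4 with 1 mM MgCl2 produced a crude extract, used at 1 mg/mL protein. Exposure to 10 μM compound lasted 30 min, and aliquots were then heated for 3 min across 48°C-58°C, pooled and brought to 0.5% NP-40 at 4°C. The supernatant after 21,000xg for 90 min was quantified by TMTpro 16plex LC-MS/MS with channel sums equalised. Duplicate values are given as log-two fold change in thermal stability relative to solvent controls.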
For the target ISL2 (UniProt Q96A47), the log2 fold change is inactive: 0.038.
With KAZN isoform 3 (UniProt Q674X7), the log2 fold change was inactive: 0.043.
Still for that read-out and setting: in the case of JPT2 isoform 2 (UniProt Q9H910) it was inactive: -0.045.
In the case of ITPRID2 (UniProt P28290), the log2 fold change was inactive: -0.156.
ISG20 (UniProt Q96AZ6): the log2 fold change is inactive: -0.118.
Consider JMJD7 (UniProt P0C870), for which the log2 fold change was inactive: -0.15.
On the same count and under the same terms, as for IRS2 (UniProt Q9Y4H2), the figure is inactive: -0.091.
The same measure, in the same setting: as for KCTD13 (UniProt Q8WZ19), the figure is inactive: 0.3; as for JAG2 (UniProt Q9Y219), inactive: 0.213; as for JMY (UniProt Q8N9B5), inactive: -0.142.

Compound in the next experiment: CC1=C(SC2=C1C(=N[C@H](C3=NN=C(N32)C)CC(=O)N)C4=CC=C(C=C4)Cl)C
The experiment is described as above. In a few lines: as §1
Turning to ISL2 (UniProt Q96A47), the log2 fold change is inactive: 0.058.
Still for that read-out and setting: in the case of KAZN isoform 3 (UniProt Q674X7) it was inactive: -0.035.
On the same count and under the same terms, in the case of JPT2 isoform 2 (UniProt Q9H910) it was inactive: 0.052.
Regarding ITPRID2 (UniProt P28290), the log2 fold change was inactive: 0.077.
Same read-out and setting: as for ISG20 (UniProt Q96AZ6), the figure is inactive: 0.076; as for JMJD7 (UniProt P0C870), inactive: -0.003.
Regarding IRS2 (UniProt Q9Y4H2), the log2 fold change is inactive: 0.246.
Same read-out and setting: in the case of KCTD13 (UniProt Q8WZ19) it was inactive: -0.161; in that of JAG2 (UniProt Q9Y219), inactive: -0.226; in that of JMY (UniProt Q8N9B5), inactive: -0.078.

Compound in the next experiment: CC1=C2C(=CC=C1)N=C(N(C2=O)C3=CC=CC=C3C)CN4C=NC5=C(N=CN=C54)N
Described as above. Summed up: as §1
With KANK2 isoform 2 (UniProt Q63ZY3), the log2 fold change is inactive: 0.267.
Same read-out and setting: as for ITGB1BP2 (UniProt Q9UKP3), the figure is inactive: 0.116.
With INTU (UniProt Q9ULD6), the log2 fold change is inactive: 0.085.
Same read-out and setting: as for KDELR3 (UniProt O43731), the figure is inactive: -0.12; as for KCTD7 (UniProt Q96MP8), inactive: -0.069.
On the same count and under the same terms, in the case of ISG20L2 (UniProt Q9H9L3) it was inactive: 0.145; in that of IST1 isoform 2 (UniProt P53990), inactive: -0.137; in that of ITGA2B (UniProt P08514), inactive: -0.05.
Take NA (UniProt J3KR12): the log2 fold change is inactive: 0.131.
With ITFG2 (UniProt H0YGR0), the log2 fold change was inactive: -0.136.
Still for that read-out and setting: as for JAK2 (UniProt O60674), the figure is inactive: 0.004; as for KATNBL1 (UniProt Q9H079), inactive: -0.111.
Still for that read-out and setting: in the case of IPP (UniProt Q9Y573) it was inactive: -0.009.
The same measure, in the same setting: as for IPO5 (UniProt H0Y3V4), the figure is inactive: -0.185.

Compound in another experiment: Cc1sc2c(c1C)C(c1ccc(Cl)cc1)=N[C@@H](CC(=O)OC(C)(C)C)c1nnc(C)n1-2
The description is as above. Summed up:
as §1
For KANK2 isoform 2 (UniProt Q63ZY3), the log2 fold change is inactive: -0.266.
Still for that read-out and setting: as for ISL2 (UniProt Q96A47), the figure is inactive: -0.063; as for JPT2 isoform 2 (UniProt Q9H910), inactive: -0.055; as for ITGB1BP2 (UniProt Q9UKP3), inactive: 0.083.
The same measure, in the same setting: as for INTS6L (UniProt Q5JSJ4), the figure is inactive: 0.073.
On the same count and under the same terms, in the case of KDELR3 (UniProt O43731) it was inactive: 0.087; in that of IRF9 (UniProt Q00978), inactive: 0.069; in that of JADE2 (UniProt Q9NQC1), inactive: -0.149.
Turning to JUN (UniProt P05412), the log2 fold change was inactive: -0.025.
Same read-out and setting: as for KCTD7 (UniProt Q96MP8), the figure is inactive: -0.159; as for ISG20L2 (UniProt Q9H9L3), inactive: -0.005.
IST1 isoform 2 (UniProt P53990): the log2 fold change was inactive: -0.119.
On the same count and under the same terms, as for ISG20 (UniProt Q96AZ6), the figure is inactive: -0.017; as for ITPR2 (UniProt Q14571), inactive: -0.171.
Regarding JMJD7 (UniProt P0C870), the log2 fold change was inactive: 0.227.
The same measure, in the same setting: in the case of ITFG2 (UniProt H0YGR0) it was inactive: 0.07; in that of ITPRIP (UniProt Q8IWB1), inactive: 0.054.
The same measure, in the same setting: in the case of KAT2A (UniProt Q92830) it was inactive: 0.105; in that of JAK2 (UniProt O60674), inactive: -0.005.
On the same count and under the same terms, in the case of JUNB (UniProt P17275) it was inactive: 0.219.
Regarding IRS2 (UniProt Q9Y4H2), the log2 fold change was inactive: -0.129.
Take KCTD13 (UniProt Q8WZ19): the log2 fold change was inactive: 0.008.
The same measure, in the same setting: in the case of JAG2 (UniProt Q9Y219) it was inactive: 0.106; in that of KANSL1 (UniProt Q7Z3B3), inactive: 0.159; in that of JMY (UniProt Q8N9B5), inactive: -0.02.
As to KATNBL1 (UniProt Q9H079), the log2 fold change was inactive: -0.012.
The same measure, in the same setting: in the case of IPP (UniProt Q9Y573) it was inactive: -0.099; in that of IPO5 (UniProt H0Y3V4), inactive: -0.023.

Compound in another experiment: c1ccc([C@@H]2C[C@H]2NC2CCNCC2)cc1
Described as above. Summed up: as §1
As to KANK2 isoform 2 (UniProt Q63ZY3), the log2 fold change is inactive: -0.092.
Same read-out and setting: in the case of ISL2 (UniProt Q96A47) it was inactive: 0.207; in that of KAZN isoform 3 (UniProt Q674X7), inactive: 0.132; in that of JPT2 isoform 2 (UniProt Q9H910), inactive: -0.01.
Same read-out and setting: as for ITGB1BP2 (UniProt Q9UKP3), the figure is inactive: -0.029; as for INTS6L (UniProt Q5JSJ4), inactive: 0.086.
For the target KDELR3 (UniProt O43731), the log2 fold change is inactive: -0.01.
The same measure, in the same setting: in the case of KCNN4 (UniProt O15554) it was inactive: 0.031.
Turning to JADE2 (UniProt Q9NQC1), the log2 fold change was inactive: -0.104.
The same measure, in the same setting: as for KALRN (UniProt O60229), the figure is inactive: 0.015.
On the same count and under the same terms, as for ITPRID2 (UniProt P28290), the figure is inactive: 0.089; as for KBTBD6 (UniProt Q86V97), inactive: -0.056.
Still for that read-out and setting: as for ISG20L2 (UniProt Q9H9L3), the figure is inactive: 0.047.
Turning to ITGA2B (UniProt P08514), the log2 fold change is inactive: -0.125.
JMJD7 (UniProt P0C870): the log2 fold change is inactive: -0.039.
Consider NA (UniProt J3KR12), for which the log2 fold change is inactive: -0.482.
Still for that read-out and setting: as for ITGB3BP isoform 5 (UniProt Q13352), the figure is inactive: -0.014.
Same read-out and setting: in the case of KAT2A (UniProt Q92830) it was inactive: -0.011; in that of JAK2 (UniProt O60674), inactive: 0.011; in that of JUNB (UniProt P17275), inactive: 0.004.
The same measure, in the same setting: as for IRS2 (UniProt Q9Y4H2), the figure is inactive: -0.354; as for KCNH2 (UniProt Q12809), inactive: 0.164.
JAG2 (UniProt Q9Y219): the log2 fold change was inactive: 0.038.
Take KANSL1 (UniProt Q7Z3B3): the log2 fold change was inactive: 0.
Take JMY (UniProt Q8N9B5): the log2 fold change was inactive: 0.13.
Still for that read-out and setting: in the case of KATNBL1 (UniProt Q9H079) it was inactive: -0.071.
IPP (UniProt Q9Y573): the log2 fold change is inactive: 0.02.
The same measure, in the same setting: as for IPO5 (UniProt H0Y3V4), the figure is inactive: 0.093.

For the origin of these results see the supplement of paper PMC10849652.
